Data reported in publication PMC12324117.
No constants are given. Whether binding was seen depends on the method and setting. In cells and extracts the contact can be indirect. A result given as binding can be weak or reduced; the word gives no strength. Where a sequence is shown, tags or fusion partners need not be part of it.

Biological target: T1, FLAG-LRRC4B (UniProt Q9NT99)
T1 sequence: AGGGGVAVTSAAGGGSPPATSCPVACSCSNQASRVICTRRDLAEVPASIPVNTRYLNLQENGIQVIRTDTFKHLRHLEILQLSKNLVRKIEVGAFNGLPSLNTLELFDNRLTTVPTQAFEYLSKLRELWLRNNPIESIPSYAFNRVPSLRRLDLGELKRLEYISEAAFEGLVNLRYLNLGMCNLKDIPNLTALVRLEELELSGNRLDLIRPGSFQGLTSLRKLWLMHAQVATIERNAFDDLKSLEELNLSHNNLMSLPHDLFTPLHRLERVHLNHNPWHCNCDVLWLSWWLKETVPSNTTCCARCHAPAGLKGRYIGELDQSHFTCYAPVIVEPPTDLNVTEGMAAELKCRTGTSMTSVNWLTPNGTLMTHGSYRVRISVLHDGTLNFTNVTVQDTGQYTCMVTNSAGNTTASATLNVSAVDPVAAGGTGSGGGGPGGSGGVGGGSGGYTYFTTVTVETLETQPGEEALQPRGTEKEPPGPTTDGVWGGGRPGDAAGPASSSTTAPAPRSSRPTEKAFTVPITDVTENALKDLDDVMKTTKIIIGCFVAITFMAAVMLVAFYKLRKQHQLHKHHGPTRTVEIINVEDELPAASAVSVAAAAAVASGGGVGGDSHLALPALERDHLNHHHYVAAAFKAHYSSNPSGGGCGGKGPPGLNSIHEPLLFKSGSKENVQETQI
Assay: co-IP; HEK293 cells transfected with FAM19A5 (WT or MT) and FLAG-LRRC4B plasmids; lysis in 20 mM Tris-HCl pH 7.4, 150 mM NaCl, 0.5% NP40; Protein G Dynabeads pre-incubated with antibodies (not named), overnight 4°C; washes with 300 mM NaCl

With wild-type (WT) FAM19A5 the binding was “binds”.
